Measurements published in US12503448B2, “Antibacterial and antiparasitic quinoxaline-2,3-diamine derivatives” (University College Cardiff Consultants Limited, priority 2019, dated 2025).

Test: Metabolic stability in mouse liver microsomes

Row | Compound | microsomal CLint at 1 μM (microsomes) [µL/min/mg] | microsomal CLint at 1 μM (liver microsomes) [µL/min/mg]
1 | CN1C(=O)CN=C(c2ccccc2)c2cc(Cl)ccc21 [Diazepam, reference compound] | 457 | 
2 | CN(C)CCOC(c1ccccc1)c1ccccc1 [Diphenhydramine, reference compound] |  | 58.3
